According to article PMC7806726 (Scientific Reports, 2021):

Assay: general procedure: Fmoc solid-phase peptide synthesis; Rink amide linker on aminomethyl PS resin (1% DVB, 100–200 mesh, 1.43 mmol/g); DIC/Oxyma
Conditions: whole synthesis, 220 nm

## PEPTIDE1{[5FAM].[PEG2].E.E.I.[Nle].R.R}|PEPTIDE2{[5FAM].[PEG2].E.E.I.[Nle].R.R}|PEPTIDE3{[5FAM].[PEG2].E.E.I.[Nle].R.R}|CHEM1{[TriScaffold]}$PEPTIDE1,CHEM1,8:R2-1:R1|PEPTIDE2,CHEM1,8:R2-1:R2|PEPTIDE3,CHEM1,8:R2-1:R3$$$V2.0
  final HPLC purity: > 99%

Strings that start with PEPTIDE1 are HELM notation: dots part the residues, brackets hold end groups and non-standard residues.
